From PubChem BioAssay AID588590 (National Center for Advancing Translational Sciences (NCATS), 2011)
In all, about 390,000 compounds went through this assay and about 4,000 (1%) were called active. Inconclusive results, whose numbers are uncertain, are shown with a selection of clear calls. Calls come from the whole dose curve; as a rule, active = well fitted inhibition curve with a large enough effect; inconclusive = small, poorly fitted or top-dose-only effect, or another doubt; inactive = no such curve, though single readings can be large or run the other way. Potencies beside an inconclusive call are fits to weak or partial responses and may not hold up.

By UniProt entry, the sequences of proteins in these tests, tags left out. Where a name states a change or a piece, a line headed by the entry shows the natural chain unless it says otherwise.
UniProt Q9UNA4: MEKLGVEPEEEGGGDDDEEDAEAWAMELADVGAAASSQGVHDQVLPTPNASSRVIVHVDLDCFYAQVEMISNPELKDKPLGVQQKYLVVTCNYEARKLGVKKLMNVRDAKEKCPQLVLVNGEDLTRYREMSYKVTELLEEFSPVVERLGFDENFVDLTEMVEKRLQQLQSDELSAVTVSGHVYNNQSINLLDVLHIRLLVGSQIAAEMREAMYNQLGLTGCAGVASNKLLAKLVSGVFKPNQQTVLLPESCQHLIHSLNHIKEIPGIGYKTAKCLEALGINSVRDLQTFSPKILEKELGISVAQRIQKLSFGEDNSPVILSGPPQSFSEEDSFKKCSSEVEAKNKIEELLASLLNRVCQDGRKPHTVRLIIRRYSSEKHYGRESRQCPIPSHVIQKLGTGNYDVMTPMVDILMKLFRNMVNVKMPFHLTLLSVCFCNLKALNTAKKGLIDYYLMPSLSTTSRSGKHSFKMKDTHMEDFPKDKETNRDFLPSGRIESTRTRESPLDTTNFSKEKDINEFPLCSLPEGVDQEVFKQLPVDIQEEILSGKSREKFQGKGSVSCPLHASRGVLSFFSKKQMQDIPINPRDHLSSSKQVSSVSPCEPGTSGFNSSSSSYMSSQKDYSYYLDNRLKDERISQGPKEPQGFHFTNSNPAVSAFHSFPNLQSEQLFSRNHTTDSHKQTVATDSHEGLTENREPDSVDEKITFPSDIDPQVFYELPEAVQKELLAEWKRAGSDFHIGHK

Target: DNA polymerase iota (Homo sapiens) (UniProt Q9UNA4)
Experiment: qHTS for Inhibitors of Polymerase Iota
Conditions: Pol iota fluorescent replication assay, 10 min; series mostly up to 115 µM; activity, negative = inhibition: at the top concentration
Summary of the method: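 Pol iota at 10 nM preincubated 15 min with compounds at room temperature; reaction started with fluorescent substrate, 50 nM final. Fluorescence read kinetically at 0 and 10 min; buffer-only wells as negative control.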
Potency is the fitted concentration of half-maximal effect.

| SMILES | activity, negative = inhibition | Potency |
| --- | --- | --- |
| CCn1c(=O)cc(SCC(=O)NCCc2cccc(C)c2)c2ccccc21 | inactive: 34.5% | – |
| O=C1C(Cl)=C(N2CCOCC2)C(=O)N1c1ccc(Br)cc1 | – | inconclusive: 17.8 µM [inhibitor, partial curve, poor fit] |
| NC(=O)C1CCN(C(=O)CSc2ccsc2[N+](=O)[O-])CC1 | – | inconclusive: 25.1 µM [inhibitor, full curve, poor fit] |
| COCCCNC(=O)c1ccc(Cn2c(=O)c3ccccc3n(CC(=O)Nc3ccc(C)cc3C)c2=O)cc1 | – | inconclusive: 89.1 µM [inhibitor, single point] |
| COC(=O)C1CCN(S(=O)(=O)c2cc3c4c(c2)CCN4C(=O)CC3)CC1 | inactive: -27.6% | – |
| c1ccc2c(C[n+]3csc4ccccc43)cccc2c1 | – | inconclusive: 28.2 µM [inhibitor, partial curve] |
| O=C(NNC(=S)NC(=O)c1cccnc1)c1ccccc1 | – | inconclusive: 2 µM [inhibitor, full curve, poor fit] |
| N#CC1=C(N)Oc2n[nH]c(-c3cccs3)c2C1c1cccs1 (stereo not drawn) | inactive: 21.7% | – |
| CCOC(=O)c1noc2ncnc(N3CCN(c4cccc(Cl)c4)CC3)c12 | inactive: 8.9% | – |
| COc1cc(/C=N/NC(=O)CSc2ccccn2)ccc1O | inactive: -15.7% | – |
| CCn1cc(C(=O)N[C@H](C)c2ccccc2)c(=O)c2cc(F)c(N3CCN(C)CC3)cc21 | – | inconclusive: 89.1 µM [inhibitor, single point] |
| COCCNC(=O)c1ccc(C2SCC(=O)N2CCc2ccccc2)cc1 (stereo not drawn) | – | inconclusive: 100 µM [inhibitor, single point] |
| CCc1ccc(S(=O)(=O)c2nnn3c2nc(Nc2cc(OC)cc(OC)c2)c2cc(Cl)ccc23)cc1 | inactive: 17.5% | – |
| COc1cccc2nc3c(C(=O)NCCN(C)C)cccc3cc12 | – | inconclusive: 56.2 µM [inhibitor, partial curve, poor fit] |
| CCCCN(C(=O)c1cc(-c2ccco2)nc2ccccc12)c1c(N)n(CCC)c(=O)[nH]c1=O | – | active: 25.1 µM |
| Cc1cc(C)cc(NC(=O)Cn2nnc(C(=O)NCc3ccccc3Cl)c2N)c1 | – | inconclusive: 89.1 µM [inhibitor, partial curve, poor fit] |
| COc1cccc(CNC(=O)CSc2n[nH]c(-c3ccccc3Cl)n2)c1OC | – | inconclusive: 56.2 µM [inhibitor, partial curve, poor fit] |
| CCOc1ccccc1CNC(=O)c1cn(-c2ccc(OC)cc2)c(=O)c2ccccc12 | inactive: 0.0876% | – |
| Cc1ccc(OCc2ccoc2C(=O)O)cc1C | – | inconclusive: 56.2 µM [inhibitor, partial curve, poor fit] |
| Cc1ccc(OCCNS(=O)(=O)c2ccc(N3CCCC3=O)cc2)cc1C | – | inconclusive: 112 µM [inhibitor, single point] |
| O=C(Nc1ccc(-c2cn3c(n2)SCC3)cc1)c1ccco1 | – | inconclusive: 28.2 µM [inhibitor, partial curve, poor fit] |
| O=C(Nc1nc2ccc(S(=O)(=O)N3CCCC3)cc2s1)c1ccc(F)cc1 | inactive: -22.2% | – |

As a short view, two of the compounds above:

| SMILES | activity, negative = inhibition | Potency |
| --- | --- | --- |
| COc1cccc2nc3c(C(=O)NCCN(C)C)cccc3cc12 | – | inconclusive: 56.2 µM [inhibitor, partial curve, poor fit] |
| CCCCN(C(=O)c1cc(-c2ccco2)nc2ccccc12)c1c(N)n(CCC)c(=O)[nH]c1=O | – | active: 25.1 µM |

Remaining list, next part:

| SMILES | activity, negative = inhibition | Potency |
| --- | --- | --- |
| CCN(Cc1ccccc1)C1CCN(Cc2ccccc2)CC1 | – | inconclusive: 56.2 µM [inhibitor, single point] |
| Nc1ccc(S(=O)(=O)N2CCC(Cc3ccccc3)CC2)cc1 | – | inconclusive: 56.2 µM [inhibitor, partial curve, poor fit] |
| N#Cc1c2nc3ccccc3nc2n2cc(NC(=O)c3ccc(F)cc3)ccc12 | – | inconclusive: 28.2 µM [inhibitor, partial curve, poor fit] |
| CC(=O)Nc1ccc(NC(=O)CSc2nnc(C)c(=O)n2N)cc1 | inactive: 45.3% | – |
| CCc1cccc(NC(=O)c2cc(OC)c(OC)c(OC)c2)c1 | – | inconclusive: 100 µM [inhibitor, partial curve, poor fit] |
| Cc1ccnc2nc(C(=O)Nc3nnc(-c4ccc(Cl)cc4)o3)nn12 | – | inconclusive: 14.1 µM [inhibitor, full curve] |
| O=c1c(N2CCN(c3cccc(Cl)c3)CC2)csc2ccccc12 | inactive: 0.785% | – |
| CNc1ccc2c3c(cccc13)C(=O)N(C)C2=O | – | inconclusive: 15.8 µM [inhibitor, partial curve, poor fit] |
| CC(C)CN(C(=O)COC(=O)CN1C(=O)c2ccccc2C1=O)c1c(N)n(Cc2ccccc2)c(=O)[nH]c1=O | – | inconclusive: 79.4 µM [inhibitor, partial curve, poor fit] |
| COc1cc(OC)c(N(C)C(=O)C2CCCN(c3ncnc4c3nc3n4CCCCC3)C2)cc1Cl (stereo not drawn) | inactive: -8.33% | – |
| c1ccc(Nc2cccc3c(Nc4ccccc4)cccc23)cc1 | inactive: -0.121% | – |
| Cc1ccc(-c2nc3c(cnn3-c3ccccc3)c(=O)n2-c2cccc(Cl)c2)cc1 | – | inconclusive: 14.1 µM [inhibitor, partial curve, poor fit] |
| O=C(/C(=C/O)N=Nc1ccc(Cl)cc1)c1ccncc1 | – | inconclusive: 8.91 µM [inhibitor, full curve, poor fit] |
| C/C(=N\Nc1ccc(C)c(Cl)c1)c1cccnc1 | – | inconclusive: 2.51 µM [inhibitor, full curve, poor fit] |
| COc1cc(Cl)c(C)cc1NC(=O)COC(=O)CCc1nc2ccccc2c(=O)[nH]1 | – | inconclusive: 31.6 µM [inhibitor, partial curve, poor fit] |
| COc1ccc(-c2cc(=O)oc3c(C)c(OCC(=O)NCC4CCC(C(=O)O)CC4)ccc23)cc1 (stereo not drawn) | – | inconclusive: 35.5 µM [inhibitor, single point] |
| CCC(C)C(=O)OCC1(c2ccc(C)cc2OC(=O)C(C)C)CO1 (stereo not drawn) | – | inconclusive: 70.8 µM [inhibitor, single point] |
| Cc1cc(NS(=O)(=O)c2ccc(NC(=O)c3ccco3)cc2)nc(C)n1 | inactive: -4.43% | – |
| CCc1ccc(NC(=O)CSc2ccc(-c3ccco3)nn2)cc1 | inactive: 126% | – |
| Cc1cc(=O)[nH]c2ccc([N+](=O)[O-])cc12 | inactive: 6.57% | – |
| COc1cc(C)ccc1OCCCOc1ccccc1Br | – | inconclusive: 89.1 µM [inhibitor, partial curve, poor fit] |
